According to the supplement of paper PMC10849652:
The list shows a part of the results.

Sequences of proteins named here, by UniProt entry; tags and fusion partners are left off. A change or cut given only in a name is not applied to a line headed by its entry.
UniProt Q15436: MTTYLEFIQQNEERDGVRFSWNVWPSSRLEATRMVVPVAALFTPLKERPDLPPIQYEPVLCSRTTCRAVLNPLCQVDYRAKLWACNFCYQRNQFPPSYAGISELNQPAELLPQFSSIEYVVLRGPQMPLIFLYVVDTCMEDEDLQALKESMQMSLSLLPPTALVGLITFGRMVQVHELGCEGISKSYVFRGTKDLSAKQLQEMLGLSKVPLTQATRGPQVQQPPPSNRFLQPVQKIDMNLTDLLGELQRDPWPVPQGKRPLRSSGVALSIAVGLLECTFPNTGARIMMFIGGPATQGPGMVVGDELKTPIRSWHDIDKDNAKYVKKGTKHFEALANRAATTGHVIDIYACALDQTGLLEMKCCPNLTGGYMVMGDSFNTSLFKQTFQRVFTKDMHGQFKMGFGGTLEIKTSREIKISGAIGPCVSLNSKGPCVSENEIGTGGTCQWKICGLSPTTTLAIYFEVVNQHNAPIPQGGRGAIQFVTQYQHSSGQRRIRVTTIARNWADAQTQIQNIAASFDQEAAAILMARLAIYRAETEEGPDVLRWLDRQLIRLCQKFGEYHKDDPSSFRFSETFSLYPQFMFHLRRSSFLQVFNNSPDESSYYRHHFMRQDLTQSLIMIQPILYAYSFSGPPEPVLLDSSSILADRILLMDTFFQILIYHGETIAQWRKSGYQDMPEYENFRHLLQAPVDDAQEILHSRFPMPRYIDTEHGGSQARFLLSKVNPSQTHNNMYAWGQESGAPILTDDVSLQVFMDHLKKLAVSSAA
UniProt Q01196, whole entry, looked up: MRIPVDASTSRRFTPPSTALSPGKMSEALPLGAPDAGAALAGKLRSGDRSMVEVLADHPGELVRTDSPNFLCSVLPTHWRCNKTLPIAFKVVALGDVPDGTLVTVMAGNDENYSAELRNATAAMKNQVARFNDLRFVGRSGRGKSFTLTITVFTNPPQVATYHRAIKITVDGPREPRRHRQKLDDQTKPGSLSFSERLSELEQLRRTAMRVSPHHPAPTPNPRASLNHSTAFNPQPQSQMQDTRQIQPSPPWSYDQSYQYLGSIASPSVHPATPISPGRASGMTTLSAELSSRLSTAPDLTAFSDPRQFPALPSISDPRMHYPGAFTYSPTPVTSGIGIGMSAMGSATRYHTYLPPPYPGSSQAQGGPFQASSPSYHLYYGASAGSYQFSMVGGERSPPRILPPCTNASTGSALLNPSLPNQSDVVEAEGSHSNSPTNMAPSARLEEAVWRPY
UniProt P28702: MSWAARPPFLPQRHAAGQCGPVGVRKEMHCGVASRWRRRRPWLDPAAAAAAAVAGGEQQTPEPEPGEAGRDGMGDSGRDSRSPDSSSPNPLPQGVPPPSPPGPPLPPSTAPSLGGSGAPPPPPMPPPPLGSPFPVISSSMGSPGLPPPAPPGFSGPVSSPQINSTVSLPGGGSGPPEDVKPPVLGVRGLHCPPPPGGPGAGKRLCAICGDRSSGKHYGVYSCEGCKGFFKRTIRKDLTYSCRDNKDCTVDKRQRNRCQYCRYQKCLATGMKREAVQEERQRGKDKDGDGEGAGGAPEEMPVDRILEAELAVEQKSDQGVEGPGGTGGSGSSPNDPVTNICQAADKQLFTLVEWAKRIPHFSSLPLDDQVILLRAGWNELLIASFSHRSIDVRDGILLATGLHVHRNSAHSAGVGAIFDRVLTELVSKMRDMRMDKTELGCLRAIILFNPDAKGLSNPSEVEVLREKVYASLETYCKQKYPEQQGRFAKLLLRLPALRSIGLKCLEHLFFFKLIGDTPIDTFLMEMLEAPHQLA
UniProt Q9NTJ5: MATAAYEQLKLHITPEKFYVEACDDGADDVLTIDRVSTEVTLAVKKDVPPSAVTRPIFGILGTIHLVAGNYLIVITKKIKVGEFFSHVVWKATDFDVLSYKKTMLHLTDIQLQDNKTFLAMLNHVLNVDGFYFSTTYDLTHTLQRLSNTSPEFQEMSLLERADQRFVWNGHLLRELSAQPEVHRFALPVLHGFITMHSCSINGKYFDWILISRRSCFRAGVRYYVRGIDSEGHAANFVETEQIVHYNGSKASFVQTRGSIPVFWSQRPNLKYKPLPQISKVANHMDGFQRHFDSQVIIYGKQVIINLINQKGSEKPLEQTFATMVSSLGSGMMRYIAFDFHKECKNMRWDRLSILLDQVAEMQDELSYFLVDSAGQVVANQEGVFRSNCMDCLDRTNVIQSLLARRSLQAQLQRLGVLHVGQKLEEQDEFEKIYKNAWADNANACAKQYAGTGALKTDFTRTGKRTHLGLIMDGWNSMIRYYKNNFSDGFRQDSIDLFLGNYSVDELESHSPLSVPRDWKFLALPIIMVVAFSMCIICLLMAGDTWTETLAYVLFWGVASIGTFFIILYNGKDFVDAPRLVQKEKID
UniProt Q14684: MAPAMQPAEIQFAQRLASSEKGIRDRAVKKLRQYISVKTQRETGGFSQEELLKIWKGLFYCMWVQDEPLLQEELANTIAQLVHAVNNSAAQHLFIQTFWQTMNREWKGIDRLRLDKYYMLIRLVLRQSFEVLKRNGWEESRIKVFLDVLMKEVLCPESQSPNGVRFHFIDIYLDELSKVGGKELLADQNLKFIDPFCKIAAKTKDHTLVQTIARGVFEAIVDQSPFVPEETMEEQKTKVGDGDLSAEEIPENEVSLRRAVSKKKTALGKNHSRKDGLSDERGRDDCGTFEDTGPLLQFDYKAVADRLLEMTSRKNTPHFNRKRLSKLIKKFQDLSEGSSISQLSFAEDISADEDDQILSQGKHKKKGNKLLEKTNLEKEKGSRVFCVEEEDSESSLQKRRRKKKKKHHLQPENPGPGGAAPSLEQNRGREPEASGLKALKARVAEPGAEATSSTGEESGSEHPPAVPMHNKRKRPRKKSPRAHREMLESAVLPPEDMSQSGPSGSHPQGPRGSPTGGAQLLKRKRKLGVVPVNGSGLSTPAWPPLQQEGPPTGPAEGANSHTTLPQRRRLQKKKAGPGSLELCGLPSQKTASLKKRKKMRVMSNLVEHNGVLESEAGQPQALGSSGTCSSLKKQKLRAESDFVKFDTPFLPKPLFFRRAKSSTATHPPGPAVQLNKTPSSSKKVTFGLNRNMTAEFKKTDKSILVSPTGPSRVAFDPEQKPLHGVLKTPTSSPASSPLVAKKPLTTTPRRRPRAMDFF
UniProt O00767: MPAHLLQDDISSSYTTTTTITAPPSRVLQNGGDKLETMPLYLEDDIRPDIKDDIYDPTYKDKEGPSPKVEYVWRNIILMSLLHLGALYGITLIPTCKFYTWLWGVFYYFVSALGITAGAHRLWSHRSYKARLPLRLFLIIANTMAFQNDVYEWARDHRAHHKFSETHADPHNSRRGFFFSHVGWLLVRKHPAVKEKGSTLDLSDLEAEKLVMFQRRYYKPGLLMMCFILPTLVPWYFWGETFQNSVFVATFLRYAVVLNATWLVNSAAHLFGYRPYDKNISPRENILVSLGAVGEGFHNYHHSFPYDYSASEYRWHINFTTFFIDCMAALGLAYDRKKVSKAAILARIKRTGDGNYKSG
UniProt Q9NSI8: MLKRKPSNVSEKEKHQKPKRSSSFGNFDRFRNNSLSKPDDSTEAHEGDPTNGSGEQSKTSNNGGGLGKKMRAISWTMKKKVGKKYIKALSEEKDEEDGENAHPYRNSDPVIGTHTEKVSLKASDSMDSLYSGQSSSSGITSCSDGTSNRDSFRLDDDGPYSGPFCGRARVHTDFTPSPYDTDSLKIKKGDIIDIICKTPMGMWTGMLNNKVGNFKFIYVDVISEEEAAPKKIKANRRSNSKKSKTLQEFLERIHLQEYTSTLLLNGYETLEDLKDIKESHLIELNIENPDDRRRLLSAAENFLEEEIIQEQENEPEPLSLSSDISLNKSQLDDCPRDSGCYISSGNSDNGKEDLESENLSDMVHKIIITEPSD
UniProt O75845: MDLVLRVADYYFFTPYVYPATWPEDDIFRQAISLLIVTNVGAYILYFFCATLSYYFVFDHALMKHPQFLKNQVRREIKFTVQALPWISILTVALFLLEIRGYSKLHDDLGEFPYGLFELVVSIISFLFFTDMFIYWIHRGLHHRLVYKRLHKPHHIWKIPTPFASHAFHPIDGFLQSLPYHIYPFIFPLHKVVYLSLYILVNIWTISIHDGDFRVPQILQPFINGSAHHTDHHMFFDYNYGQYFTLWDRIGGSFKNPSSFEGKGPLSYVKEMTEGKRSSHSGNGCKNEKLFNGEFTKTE
UniProt Q13296: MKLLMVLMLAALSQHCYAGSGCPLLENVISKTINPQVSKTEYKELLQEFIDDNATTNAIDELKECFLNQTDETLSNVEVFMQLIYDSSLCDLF
UniProt Q96BY9: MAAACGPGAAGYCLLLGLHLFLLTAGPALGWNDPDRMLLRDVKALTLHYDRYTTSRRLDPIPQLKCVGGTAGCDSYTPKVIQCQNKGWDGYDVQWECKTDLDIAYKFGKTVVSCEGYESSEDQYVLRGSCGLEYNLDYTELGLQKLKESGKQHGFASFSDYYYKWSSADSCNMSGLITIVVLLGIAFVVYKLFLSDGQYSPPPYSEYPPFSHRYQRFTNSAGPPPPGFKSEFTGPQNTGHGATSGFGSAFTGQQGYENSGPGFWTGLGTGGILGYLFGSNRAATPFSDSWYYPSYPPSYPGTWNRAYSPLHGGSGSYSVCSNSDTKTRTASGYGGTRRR
UniProt Q9BWG6: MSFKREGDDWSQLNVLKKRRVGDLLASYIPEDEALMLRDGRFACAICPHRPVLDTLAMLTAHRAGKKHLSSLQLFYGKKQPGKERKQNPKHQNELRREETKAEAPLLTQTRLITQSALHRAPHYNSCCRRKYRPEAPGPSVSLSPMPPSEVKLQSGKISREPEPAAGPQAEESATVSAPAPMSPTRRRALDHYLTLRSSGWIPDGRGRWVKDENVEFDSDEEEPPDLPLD
UniProt Q96NL6: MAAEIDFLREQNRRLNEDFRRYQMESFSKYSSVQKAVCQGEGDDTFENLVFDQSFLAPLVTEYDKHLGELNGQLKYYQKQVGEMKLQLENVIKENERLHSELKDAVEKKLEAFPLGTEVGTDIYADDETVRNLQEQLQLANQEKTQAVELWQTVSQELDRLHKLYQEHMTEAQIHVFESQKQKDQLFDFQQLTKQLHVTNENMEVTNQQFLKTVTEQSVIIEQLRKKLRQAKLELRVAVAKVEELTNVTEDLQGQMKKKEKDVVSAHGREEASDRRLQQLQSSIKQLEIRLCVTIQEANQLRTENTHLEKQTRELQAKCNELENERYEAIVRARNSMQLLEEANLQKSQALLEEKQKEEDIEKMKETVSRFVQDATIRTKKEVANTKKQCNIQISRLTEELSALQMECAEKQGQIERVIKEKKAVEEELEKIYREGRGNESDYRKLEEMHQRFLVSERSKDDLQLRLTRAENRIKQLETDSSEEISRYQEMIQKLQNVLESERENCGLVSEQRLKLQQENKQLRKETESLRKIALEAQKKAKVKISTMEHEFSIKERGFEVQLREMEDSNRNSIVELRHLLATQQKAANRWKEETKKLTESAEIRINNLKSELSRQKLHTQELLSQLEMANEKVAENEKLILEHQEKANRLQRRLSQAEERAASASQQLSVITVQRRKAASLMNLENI
UniProt Q9NPB0: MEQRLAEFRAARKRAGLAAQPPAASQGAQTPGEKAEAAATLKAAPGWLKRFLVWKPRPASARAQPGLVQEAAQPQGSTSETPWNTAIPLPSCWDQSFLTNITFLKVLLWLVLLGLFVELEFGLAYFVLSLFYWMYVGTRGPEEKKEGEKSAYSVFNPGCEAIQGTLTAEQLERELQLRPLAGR
UniProt Q9NX18: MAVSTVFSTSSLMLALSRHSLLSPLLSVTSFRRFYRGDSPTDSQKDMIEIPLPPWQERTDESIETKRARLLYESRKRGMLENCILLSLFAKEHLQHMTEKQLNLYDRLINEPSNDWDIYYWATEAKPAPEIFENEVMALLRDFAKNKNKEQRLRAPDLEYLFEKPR
UniProt Q96ER3: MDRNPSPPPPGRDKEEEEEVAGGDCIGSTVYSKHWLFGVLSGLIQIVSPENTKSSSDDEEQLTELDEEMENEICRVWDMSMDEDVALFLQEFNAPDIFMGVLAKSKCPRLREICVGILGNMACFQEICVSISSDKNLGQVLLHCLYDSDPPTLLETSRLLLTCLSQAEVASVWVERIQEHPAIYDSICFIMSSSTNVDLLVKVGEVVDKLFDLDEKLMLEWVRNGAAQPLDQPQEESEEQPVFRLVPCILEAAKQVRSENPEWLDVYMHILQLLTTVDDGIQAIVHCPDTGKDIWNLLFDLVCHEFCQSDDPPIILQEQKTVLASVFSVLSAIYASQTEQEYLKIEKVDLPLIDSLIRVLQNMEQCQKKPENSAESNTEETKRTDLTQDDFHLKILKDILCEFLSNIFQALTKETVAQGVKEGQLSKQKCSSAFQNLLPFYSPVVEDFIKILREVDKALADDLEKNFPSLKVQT
UniProt O43819: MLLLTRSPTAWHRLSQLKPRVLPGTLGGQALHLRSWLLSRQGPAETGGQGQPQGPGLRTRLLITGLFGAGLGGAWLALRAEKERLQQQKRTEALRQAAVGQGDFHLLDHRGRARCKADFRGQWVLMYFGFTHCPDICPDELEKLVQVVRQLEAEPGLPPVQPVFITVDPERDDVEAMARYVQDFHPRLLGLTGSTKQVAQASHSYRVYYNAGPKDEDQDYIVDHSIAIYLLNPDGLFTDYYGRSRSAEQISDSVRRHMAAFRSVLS

Legend:
Assay in all cases: log2 fold change, soluble protein after heating vs DMSO (PISA); higher = thermal stabilisation; K562 cells, 10 uM, 30 min; active = over 0.2 and 3.5 SD of the protein, either way, in both replicates (recomputed)
[1] = compound: CS(=O)(=O)c1ccc(-c2cnc(N)c(C(=O)Nc3ccccc3)n2)cc1
Outline: (§1)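 K562 cells at 2×10^6 cells/mL were treated for 30 min with 10 μM compound, and aliquots were heated for 3 min over 48°C-58°C before pooling. Extraction used PBS with 0.5% NP-40 at 4°C, and soluble protein was the supernatant after 21,000xg for 90 min, measured by TMTpro 16plex LC-MS/MS with channel sums equalised. Thermal stability values, relative to control samples and from duplicates, are log2 fold changes.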

crizotinib = compound: C[C@@H](Oc1cc(-c2cnn(C3CCNCC3)c2)cnc1N)c1c(Cl)ccc(F)c1Cl [crizotinib]
Outline: as §1

[2] = compound: C[C@@H]1COCCN1C2=NC(=NC(=C2)C3(CC3)S(=O)(=O)C)C4=C5C=CNC5=CC=C4
Outline: as §1

[3] = compound: C[C@H](C1=CC=C(C=C1)C(=O)NC2=C3C=CNC3=NC=C2)N
Outline: as §1

duvelisib = compound: C[C@H](Nc1ncnc2nc[nH]c12)c1cc2cccc(Cl)c2c(=O)n1-c1ccccc1 [duvelisib]
Outline: as §1

gandotinib = compound: Cc1cc(Nc2cc(CN3CCOCC3)c3nc(C)c(Cc4ccc(Cl)cc4F)n3n2)n[nH]1 [gandotinib]
Outline: as §1

tozasertib = compound: Cc1cc(Nc2cc(N3CCN(C)CC3)nc(Sc3ccc(NC(=O)C4CC4)cc3)n2)n[nH]1 [tozasertib]
Outline: as §1

[4] = compound: Cc1cc(SCc2sc(-c3ccc(C(F)(F)F)cc3)nc2C)ccc1OCC(=O)O
Outline: as §1

doramapimod = compound: Cc1ccc(-n2nc(C(C)(C)C)cc2NC(=O)Nc2ccc(OCCN3CCOCC3)c3ccccc23)cc1 [doramapimod]
Outline: as §1

ispinesib = compound: Cc1ccc(C(=O)N(CCCN)[C@@H](c2nc3cc(Cl)ccc3c(=O)n2Cc2ccccc2)C(C)C)cc1 [ispinesib]
Outline: as §1

Target | log2 fold change [1] | log2 fold change (crizotinib) | log2 fold change [2] | log2 fold change [3] | log2 fold change (duvelisib) | log2 fold change (gandotinib) | log2 fold change (tozasertib) | log2 fold change [4] | log2 fold change (doramapimod) | log2 fold change (ispinesib)
SEC24C (UniProt P53992) | inactive: 0.013 | inactive: 0.026 | inactive: 0.05 | inactive: 0.012 | inactive: 0.042 | inactive: -0.171 | inactive: 0.018 | inactive: 0.069 | inactive: 0.005 | inactive: 0.04
RSL1D1 (UniProt O76021) | inactive: -0.146 | inactive: 0.037 | inactive: -0.33 | inactive: 0.456 |  | inactive: 0.146 |  | inactive: -0.037 | inactive: 0.312 | inactive: 0.251
SEC23A (UniProt Q15436) | inactive: 0.001 | inactive: -0.016 | inactive: 0.061 | inactive: -0.102 |  | inactive: -0.109 |  | inactive: 0.03 | inactive: -0.092 | inactive: 0.023
SEC24A (UniProt O95486) | inactive: 0.002 | inactive: -0.001 | inactive: 0.075 | inactive: 0.001 |  | inactive: -0.148 |  | inactive: 0.084 | inactive: -0.029 | inactive: 0.017
RUNX1 isoform 8 (UniProt Q01196) | inactive: 0.106 | inactive: -0.066 | inactive: 0.089 |  |  | inactive: 0.088 |  | inactive: 0.178 | inactive: 0.054 | inactive: 0.155
RXRB isoform 3 (UniProt P28702) | inactive: 0.141 |  | inactive: 0.06 |  |  |  |  |  |  | 
SART3, A0A499FI31 | inactive: -0.011 | inactive: 0.097 | inactive: 0.049 | inactive: -0.124 |  | inactive: -0.056 |  | inactive: 0.051 | inactive: -0.03 | inactive: 0.038
SACM1L (UniProt Q9NTJ5) | inactive: 0.026 | inactive: 0 | inactive: 0.062 | inactive: -0.094 |  | inactive: -0.065 |  | inactive: 0.005 | inactive: -0.055 | inactive: -0.096
RRP1B (UniProt Q14684) | inactive: -0.023 | inactive: -0.382 | inactive: -0.194 |  | inactive: -0.395 | inactive: 0.071 | inactive: 0.018 | inactive: 0.389 | inactive: -0.004 | 
SCAMP2 (UniProt H3BUB6) | inactive: 0.085 | inactive: 0.128 | inactive: -0.011 | inactive: 0.317 |  |  |  | inactive: -0.305 | inactive: -0.088 | inactive: -0.258
RUFY1 (UniProt Q96T51) | inactive: -0.04 | inactive: -0.003 | inactive: -0.034 | inactive: 0.075 |  | inactive: -0.029 |  | inactive: 0.118 | inactive: 0.032 | inactive: -0.065
SCD (UniProt O00767) | inactive: 0.024 | inactive: -0.2 | inactive: -0.06 | inactive: -0.068 |  | inactive: -0.061 |  | inactive: -0.119 | inactive: -0.028 | inactive: -0.319
RUFY3 isoform 3 (UniProt Q7L099) | inactive: 0.017 | inactive: 0.007 |  | inactive: -0.085 |  | inactive: -0.012 |  | active: 0.617 | inactive: -0.057 | inactive: -0.048
SAMSN1 isoform 3 (UniProt Q9NSI8) | inactive: 0.024 | inactive: -0.082 | inactive: 0.043 | inactive: -0.027 |  | inactive: -0.077 |  | inactive: 0.019 | inactive: -0.052 | inactive: -0.069
SDHAF4 (UniProt Q5VUM1) | inactive: 0.033 | inactive: -0.047 | inactive: 0.153 | inactive: 0.181 |  |  |  | inactive: -0.038 | inactive: 0.091 | 
SC5D (UniProt O75845) | inactive: 0.016 |  | inactive: -0.077 | inactive: -0.171 | inactive: 0.151 | inactive: 0.003 | inactive: -0.13 | inactive: 0.405 |  | inactive: -0.06
SDCBP (UniProt O00560) | inactive: -0.003 | inactive: -0.216 | inactive: 0.101 | inactive: -0.043 |  | inactive: 0.094 |  | inactive: 0.086 | inactive: -0.006 | active: -0.361
SCGB2A2 (UniProt Q13296) | inactive: -0.123 | inactive: 0.585 | inactive: 0.064 |  |  | inactive: -0.282 | inactive: 0.276 |  | inactive: -0.162 | 
SARAF (UniProt Q96BY9) | inactive: 0.102 |  | inactive: -0.075 | inactive: 0.055 | inactive: 0.01 | inactive: 0.092 | inactive: -0.066 | inactive: -0.016 |  | 
SCNM1 (UniProt Q9BWG6) | inactive: -0.035 | inactive: -0.093 | inactive: 0.111 |  | inactive: 0.031 | inactive: 0.063 | inactive: 0.016 | inactive: -0.096 | inactive: 0.103 | inactive: -0.053
SCLT1 (UniProt Q96NL6) | inactive: 0.148 | inactive: 0.003 |  | inactive: -0.081 |  | inactive: 0.149 |  | inactive: -0.028 | inactive: 0.055 | 
SDR39U1 (UniProt Q9NRG7) | inactive: 0.863 |  | inactive: 0.177 | inactive: 0.202 | inactive: -0.009 | inactive: 0.474 | inactive: 0.428 | inactive: 0.02 |  | 
SAYSD1 (UniProt Q9NPB0) | inactive: 0.062 |  | inactive: 0.352 | inactive: -0.08 |  |  |  |  |  | 
SDHAF2 (UniProt Q9NX18) | inactive: -0.042 | inactive: -0.183 | inactive: 0.07 | inactive: -0.111 |  | inactive: 0.057 |  | inactive: -0.125 | inactive: -0.051 | inactive: 0.006
RRP9 (UniProt O43818) | inactive: -0.05 | inactive: 0.084 | inactive: -0.2 | inactive: 0.031 |  | inactive: 0.056 |  | inactive: -0.054 | inactive: 0.063 | inactive: 0.12
SAAL1 (UniProt Q96ER3) | inactive: 0.013 | inactive: -0.129 | inactive: 0.047 | inactive: 0.008 |  | inactive: 0.022 |  | inactive: 0.019 | inactive: -0.006 | inactive: -0.049
SDHC (UniProt Q99643) | inactive: -0.304 | inactive: 0.08 | active: 0.457 | inactive: -0.045 |  | inactive: -0.023 |  | inactive: -0.111 | inactive: -0.086 | inactive: 0.047
SCO2 (UniProt O43819) | inactive: 0.062 | inactive: -0.106 | inactive: 0.05 | inactive: -0.016 |  | inactive: 0.026 |  | inactive: 0.061 | inactive: -0.031 | inactive: -0.134

Two entries from above, as comma-separated lines:
Target,log2 fold change [1],log2 fold change (crizotinib),log2 fold change [2],log2 fold change [3],log2 fold change (duvelisib),log2 fold change (gandotinib),log2 fold change (tozasertib),log2 fold change [4],log2 fold change (doramapimod),log2 fold change (ispinesib)
SACM1L (UniProt Q9NTJ5),inactive: 0.026,inactive: 0,inactive: 0.062,inactive: -0.094,,inactive: -0.065,,inactive: 0.005,inactive: -0.055,inactive: -0.096
RRP1B (UniProt Q14684),inactive: -0.023,inactive: -0.382,inactive: -0.194,,inactive: -0.395,inactive: 0.071,inactive: 0.018,inactive: 0.389,inactive: -0.004,
